The other results are listed elsewhere or left out.
Assays:
Test in all cases: log2 fold change, soluble protein after heating vs DMSO (PISA); higher = thermal stabilisation; K562 lysate, 10 uM; active = over 0.2 and 3.5 SD of the protein, either way, in both replicates (recomputed)
erlotinib = compound: C#Cc1cccc(Nc2ncnc3cc(OCCOC)c(OCCOC)cc23)c1 [erlotinib]
Procedure, shortened: (§1)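 The values are log-two fold changes in thermal stability compared with solvent controls and come from duplicates. They were obtained by TMTpro 16plex LC-MS/MS, with channel sums equalised, on the supernatant after 21,000xg for 90 min. That supernatant came from crude K562 extract at 1 mg/mL protein treated with 10 μM compound for 30 min, heated for 3 min across 48°C-58°C, pooled and brought to 0.5% NP-40 at 4°C.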

Chains of the proteins cited; added tags and fusions are not shown. Lines headed by an entry give the natural chain unless they say otherwise; changes in a name come on top.
UniProt P36955: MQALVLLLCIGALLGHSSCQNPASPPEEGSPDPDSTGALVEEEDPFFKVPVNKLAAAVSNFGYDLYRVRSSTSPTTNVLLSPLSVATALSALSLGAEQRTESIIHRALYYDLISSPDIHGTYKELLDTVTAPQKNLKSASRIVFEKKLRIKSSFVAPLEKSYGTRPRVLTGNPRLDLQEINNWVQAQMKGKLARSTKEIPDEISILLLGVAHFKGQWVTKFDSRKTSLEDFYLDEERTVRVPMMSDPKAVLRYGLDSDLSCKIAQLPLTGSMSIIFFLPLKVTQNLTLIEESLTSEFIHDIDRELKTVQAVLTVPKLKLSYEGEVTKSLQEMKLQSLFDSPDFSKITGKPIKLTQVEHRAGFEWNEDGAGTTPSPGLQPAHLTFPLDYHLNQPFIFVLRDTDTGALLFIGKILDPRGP
UniProt Q9NRX5: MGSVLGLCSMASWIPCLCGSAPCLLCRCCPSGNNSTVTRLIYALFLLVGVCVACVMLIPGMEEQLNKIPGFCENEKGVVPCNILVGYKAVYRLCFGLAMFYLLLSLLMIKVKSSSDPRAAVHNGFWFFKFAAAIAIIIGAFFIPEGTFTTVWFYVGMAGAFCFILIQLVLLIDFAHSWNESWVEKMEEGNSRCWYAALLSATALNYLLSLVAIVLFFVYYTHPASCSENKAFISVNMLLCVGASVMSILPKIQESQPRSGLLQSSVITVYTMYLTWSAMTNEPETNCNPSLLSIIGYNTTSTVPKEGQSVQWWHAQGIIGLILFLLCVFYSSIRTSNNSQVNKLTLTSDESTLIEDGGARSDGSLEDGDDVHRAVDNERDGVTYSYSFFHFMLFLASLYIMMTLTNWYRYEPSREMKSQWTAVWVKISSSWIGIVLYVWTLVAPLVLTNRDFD
UniProt Q9BXP2: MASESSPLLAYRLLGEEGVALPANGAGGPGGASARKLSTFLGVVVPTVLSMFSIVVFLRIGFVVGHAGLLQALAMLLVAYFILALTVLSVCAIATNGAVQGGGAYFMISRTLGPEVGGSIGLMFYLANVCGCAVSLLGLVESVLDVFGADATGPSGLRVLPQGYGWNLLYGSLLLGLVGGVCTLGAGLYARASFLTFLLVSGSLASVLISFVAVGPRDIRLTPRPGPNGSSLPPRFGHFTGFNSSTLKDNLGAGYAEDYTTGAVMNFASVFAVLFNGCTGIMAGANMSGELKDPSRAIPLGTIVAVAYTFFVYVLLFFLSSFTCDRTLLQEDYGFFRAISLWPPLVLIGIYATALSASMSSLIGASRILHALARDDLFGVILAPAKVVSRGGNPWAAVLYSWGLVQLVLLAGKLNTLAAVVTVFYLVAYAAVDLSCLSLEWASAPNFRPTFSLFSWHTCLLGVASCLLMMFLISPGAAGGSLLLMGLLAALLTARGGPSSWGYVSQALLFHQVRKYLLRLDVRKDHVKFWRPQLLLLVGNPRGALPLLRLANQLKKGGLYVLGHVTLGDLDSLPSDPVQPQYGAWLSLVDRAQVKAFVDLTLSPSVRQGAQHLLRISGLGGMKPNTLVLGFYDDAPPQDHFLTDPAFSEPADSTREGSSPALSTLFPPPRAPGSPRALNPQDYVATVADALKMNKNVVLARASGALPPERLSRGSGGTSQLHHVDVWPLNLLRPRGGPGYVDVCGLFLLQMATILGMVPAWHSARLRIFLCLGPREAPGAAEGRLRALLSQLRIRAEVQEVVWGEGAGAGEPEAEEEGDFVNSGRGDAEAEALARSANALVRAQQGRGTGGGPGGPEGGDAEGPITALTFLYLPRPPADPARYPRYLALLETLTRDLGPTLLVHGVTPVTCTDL
UniProt Q587I9: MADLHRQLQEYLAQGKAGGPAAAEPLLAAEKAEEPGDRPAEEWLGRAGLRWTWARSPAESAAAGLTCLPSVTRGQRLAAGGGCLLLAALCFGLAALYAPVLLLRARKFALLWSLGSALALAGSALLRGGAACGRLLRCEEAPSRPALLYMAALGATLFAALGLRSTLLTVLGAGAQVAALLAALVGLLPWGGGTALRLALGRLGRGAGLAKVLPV
UniProt Q6NT16: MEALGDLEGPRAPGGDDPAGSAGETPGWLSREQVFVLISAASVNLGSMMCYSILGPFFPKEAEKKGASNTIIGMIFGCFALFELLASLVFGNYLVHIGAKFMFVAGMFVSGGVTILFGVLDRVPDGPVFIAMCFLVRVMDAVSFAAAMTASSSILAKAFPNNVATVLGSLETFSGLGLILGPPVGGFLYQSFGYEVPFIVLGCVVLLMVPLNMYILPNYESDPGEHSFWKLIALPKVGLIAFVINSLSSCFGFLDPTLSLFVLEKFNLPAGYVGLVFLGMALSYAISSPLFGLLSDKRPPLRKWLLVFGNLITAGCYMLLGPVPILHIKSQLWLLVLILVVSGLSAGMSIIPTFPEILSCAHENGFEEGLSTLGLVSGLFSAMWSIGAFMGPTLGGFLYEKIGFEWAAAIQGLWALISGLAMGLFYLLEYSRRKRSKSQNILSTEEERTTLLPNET
UniProt Q96HU1: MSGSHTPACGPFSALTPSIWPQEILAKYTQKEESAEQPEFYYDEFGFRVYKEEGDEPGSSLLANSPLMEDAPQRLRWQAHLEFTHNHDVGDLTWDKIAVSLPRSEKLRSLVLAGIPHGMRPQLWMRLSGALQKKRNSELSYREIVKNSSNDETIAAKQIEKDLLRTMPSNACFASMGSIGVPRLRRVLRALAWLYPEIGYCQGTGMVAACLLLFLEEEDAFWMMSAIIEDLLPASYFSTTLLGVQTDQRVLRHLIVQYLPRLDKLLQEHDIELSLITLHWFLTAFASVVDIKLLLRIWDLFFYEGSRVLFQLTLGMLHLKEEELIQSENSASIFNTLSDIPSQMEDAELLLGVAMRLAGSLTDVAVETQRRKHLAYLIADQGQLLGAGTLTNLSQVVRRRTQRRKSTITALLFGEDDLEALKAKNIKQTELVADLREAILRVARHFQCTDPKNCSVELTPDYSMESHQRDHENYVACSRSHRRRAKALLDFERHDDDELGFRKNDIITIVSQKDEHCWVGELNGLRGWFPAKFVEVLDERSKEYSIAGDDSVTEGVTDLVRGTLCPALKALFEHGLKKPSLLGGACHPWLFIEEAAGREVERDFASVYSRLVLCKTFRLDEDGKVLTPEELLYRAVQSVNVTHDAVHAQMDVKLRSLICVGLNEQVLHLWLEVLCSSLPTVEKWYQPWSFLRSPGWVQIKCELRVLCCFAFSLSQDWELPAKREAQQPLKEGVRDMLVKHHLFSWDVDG
UniProt Q9Y2K2: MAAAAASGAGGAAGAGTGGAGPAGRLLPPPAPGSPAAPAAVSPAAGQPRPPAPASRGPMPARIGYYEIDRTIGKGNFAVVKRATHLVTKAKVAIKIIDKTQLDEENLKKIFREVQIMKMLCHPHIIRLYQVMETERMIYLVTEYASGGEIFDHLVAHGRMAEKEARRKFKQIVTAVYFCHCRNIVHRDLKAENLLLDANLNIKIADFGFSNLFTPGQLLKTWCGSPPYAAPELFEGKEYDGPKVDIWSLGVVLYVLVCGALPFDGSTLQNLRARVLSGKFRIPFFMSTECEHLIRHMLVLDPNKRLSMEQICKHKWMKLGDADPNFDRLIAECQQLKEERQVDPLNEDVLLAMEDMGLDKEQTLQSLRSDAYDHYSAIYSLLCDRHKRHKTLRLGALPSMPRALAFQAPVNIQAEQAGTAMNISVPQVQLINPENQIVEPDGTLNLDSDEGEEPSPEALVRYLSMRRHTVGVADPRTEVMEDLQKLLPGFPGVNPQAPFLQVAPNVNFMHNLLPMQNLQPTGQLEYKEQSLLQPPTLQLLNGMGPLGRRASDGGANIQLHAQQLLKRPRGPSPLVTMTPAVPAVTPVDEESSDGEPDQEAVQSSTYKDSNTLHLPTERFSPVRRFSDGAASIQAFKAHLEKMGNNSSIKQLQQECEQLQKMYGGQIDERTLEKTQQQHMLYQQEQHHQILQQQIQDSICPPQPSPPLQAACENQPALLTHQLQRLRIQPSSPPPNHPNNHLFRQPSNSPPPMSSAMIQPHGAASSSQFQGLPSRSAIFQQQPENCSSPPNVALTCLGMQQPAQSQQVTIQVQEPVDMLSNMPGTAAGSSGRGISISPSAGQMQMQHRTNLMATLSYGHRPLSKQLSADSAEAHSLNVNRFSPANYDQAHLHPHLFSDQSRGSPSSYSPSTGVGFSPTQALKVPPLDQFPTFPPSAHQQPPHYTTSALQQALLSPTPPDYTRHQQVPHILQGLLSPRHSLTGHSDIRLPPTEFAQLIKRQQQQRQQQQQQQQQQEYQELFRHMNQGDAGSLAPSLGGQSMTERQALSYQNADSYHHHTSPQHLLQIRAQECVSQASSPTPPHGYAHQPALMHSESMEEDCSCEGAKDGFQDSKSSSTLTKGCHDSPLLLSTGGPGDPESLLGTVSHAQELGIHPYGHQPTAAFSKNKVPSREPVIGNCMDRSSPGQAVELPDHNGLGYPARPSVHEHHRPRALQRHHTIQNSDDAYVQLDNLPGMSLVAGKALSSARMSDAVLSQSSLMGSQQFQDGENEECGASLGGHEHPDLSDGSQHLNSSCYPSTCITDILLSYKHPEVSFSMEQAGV
UniProt P36952: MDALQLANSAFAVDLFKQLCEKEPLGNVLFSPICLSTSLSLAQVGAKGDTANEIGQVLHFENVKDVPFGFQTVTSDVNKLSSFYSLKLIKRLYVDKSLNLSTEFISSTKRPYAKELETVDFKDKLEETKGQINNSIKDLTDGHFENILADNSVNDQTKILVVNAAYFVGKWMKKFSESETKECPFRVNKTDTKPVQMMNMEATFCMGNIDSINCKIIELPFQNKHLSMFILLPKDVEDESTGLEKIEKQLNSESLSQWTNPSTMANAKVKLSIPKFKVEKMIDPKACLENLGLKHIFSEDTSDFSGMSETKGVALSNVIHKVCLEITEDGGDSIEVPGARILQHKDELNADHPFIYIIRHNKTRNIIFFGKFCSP
UniProt Q9UQQ2: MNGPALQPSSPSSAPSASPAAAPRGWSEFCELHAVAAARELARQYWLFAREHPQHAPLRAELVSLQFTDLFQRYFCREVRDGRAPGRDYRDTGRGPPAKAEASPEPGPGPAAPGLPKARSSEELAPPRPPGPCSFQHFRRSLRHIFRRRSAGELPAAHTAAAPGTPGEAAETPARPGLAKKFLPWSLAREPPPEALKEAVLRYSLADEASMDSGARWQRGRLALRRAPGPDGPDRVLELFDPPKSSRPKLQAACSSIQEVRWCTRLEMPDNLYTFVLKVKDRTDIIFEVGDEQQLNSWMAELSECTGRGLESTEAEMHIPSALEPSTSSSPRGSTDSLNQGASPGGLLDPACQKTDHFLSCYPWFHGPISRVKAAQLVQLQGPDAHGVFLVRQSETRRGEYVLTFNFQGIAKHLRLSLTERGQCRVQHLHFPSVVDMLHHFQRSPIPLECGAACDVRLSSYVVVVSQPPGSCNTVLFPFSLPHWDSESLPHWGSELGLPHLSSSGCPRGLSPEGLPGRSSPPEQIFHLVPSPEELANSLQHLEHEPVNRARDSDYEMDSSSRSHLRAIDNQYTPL

[1] = compound: C/C(=N\NC(=O)C1=CC(=CC=C1)S(=O)(=O)N2CCOCC2)/C3=C(C=CC(=C3)Cl)O
Procedure, shortened: as §1

[2] = compound: C1=CC(=CC=C1C2=NC3=C(N2)C=C(C=C3)C(=O)N)OC4=CC=C(C=C4)Cl
Procedure, shortened: as §1

[3] = compound: C1=CC2=C(C=CC(=C2)/C=C\3/C(=O)NC(=NCC4=CC=CS4)S3)N=C1
Procedure, shortened: as §1

[4] = compound: C1=CC2=NC=CN=C2C=C1/C=C/3\C(=O)NC(=O)S3
Procedure, shortened: as §1

[5] = compound: C1=CC=C(C=C1)C2=NC(=C(N2)C3=CC=NC=C3)C4=CC(=C(C=C4)Cl)O
Procedure, shortened: as §1

[6] = compound: C1=CC=C2C(=C1)C3=NNC4=CC=CC(=C43)C2=O
Procedure, shortened: as §1

[7] = compound: C1CCN(C1)C(=O)NC2=CC=CC(=C2)NC3=NC=C(C(=N3)NCCC4=CN=CN4)Br
Procedure, shortened: as §1

[8] = compound: C1CN(CCC1(CC2=CC=C(C=C2)Cl)N)C3=NC=NC4=C3C=CN4
Procedure, shortened: as §1

IRAK-1-4 Inhibitor I = compound: C1COCCN1CCN2C3=CC=CC=C3N=C2NC(=O)C4=CC(=CC=C4)[N+](=O)[O-] [IRAK-1-4 Inhibitor I]
Procedure, shortened: as §1

ibrutinib = compound: C=CC(=O)N1CCC[C@@H](n2nc(-c3ccc(Oc4ccccc4)cc3)c3c(N)ncnc32)C1 [ibrutinib]
Procedure, shortened: as §1

[9] = compound: CC(=O)c1cnc2ccc(-c3cc(Cl)c(O)c(Cl)c3)nc2c1N[C@H]1CC[C@H](CN(C)C)CC1
Procedure, shortened: as §1

ralimetinib = compound: CC(C)(C)Cn1c(N)nc2ccc(-c3[nH]c(C(C)(C)C)nc3-c3ccc(F)cc3)nc21 [ralimetinib]
Procedure, shortened: as §1

[10] = compound: CC(C)(O)CC(=O)NCCn1ccc2ncnc(Nc3ccc(Oc4cccc(C(F)(F)F)c4)c(Cl)c3)c21
Procedure, shortened: as §1

[11] = compound: CC(C)C1=C2N=C(C=C(N2N=C1)NCC3=CC=CC=C3)NCCCCCCN
Procedure, shortened: as §1

[12] = compound: CC1=C(C(CC(=O)N1)C2=CC=C(C=C2)C(F)(F)F)C(=O)NC3=C(C=C4C(=C3)C=NN4)F
Procedure, shortened: as §1

[13] = compound: CC1=C(C2=C(C=C1)C(=O)C3=CC=CC=C3N2CCCN)C
Procedure, shortened: as §1

[14] = compound: CC1=C(C=C(C=C1)NC(=O)C2=CC(=CC=C2)C(C)(C)C#N)NC3=CC4=C(C=C3)N=CN(C4=O)C
Procedure, shortened: as §1

[15] = compound: CC1=C(C=C(C=C1)NC(=O)C2=CC(=CC=C2)N(C)C)NC(=O)C3=CC=C(C=C3)O
Procedure, shortened: as §1

[16] = compound: CC1=CC=C(C=C1)SC2=C3C=C(SC3=CN=C2)C(=O)N
Procedure, shortened: as §1

Measured: log2 fold change

SERPINF1 (UniProt P36955)
inactive: erlotinib -0.108 | [1] 0 | [2] 0.089 | [3] 0.034 | [4] -0.001 | [5] -0.01 | [6] 0.057 | [7] -0.075 | [8] -0.01 | IRAK-1-4 Inhibitor I 0.022 | ibrutinib 0.076 | [9] -0.024 | ralimetinib -0.013 | [10] 0.029 | [11] -0.034 | [12] 0.251 | [13] 0.017 | [14] 0.019 | [15] -0.065 | [16] -0.034

SERINC1 (UniProt Q9NRX5)
inactive: erlotinib 0.034 | [1] 0.072 | [2] -0.039 | [3] 0.074 | [4] -0.009 | [5] -0.057 | [6] 0.055 | [7] -0.001 | [8] -0.017 | IRAK-1-4 Inhibitor I 0.082 | ibrutinib 0 | [9] -0.04 | ralimetinib 0.03 | [10] -0.084 | [11] 0.049 | [12] -0.101 | [13] -0.012 | [14] 0.048 | [15] -0.03 | [16] -0.053

SLC12A9 (UniProt Q9BXP2)
inactive: erlotinib -0.033 | [1] -0.019 | [2] 0.02 | [3] -0.005 | [4] 0.036 | [5] 0.095 | [6] -0.028 | IRAK-1-4 Inhibitor I 0.01 | ibrutinib -0.045 | [9] 0.009 | ralimetinib -0.027 | [10] -0.004 | [11] -0.066 | [12] -0.005 | [13] -0.047 | [14] -0.026 | [15] -0.035 | [16] -0.015

SFT2D3 (UniProt Q587I9)
inactive: erlotinib 0.038 | [2] -0.027 | [5] 0.023 | [7] -0.097 | [8] -0.079 | IRAK-1-4 Inhibitor I -0.11 | [9] -0.082 | ralimetinib -0.165 | [10] 0.113 | [11] 0.057 | [12] -0.01 | [13] -0.077 | [14] -0.002 | [15] -0.109 | [16] 0.038

SLC18B1 (UniProt Q6NT16)
inactive: erlotinib -0.011 | [1] 0.065 | [2] -0.002 | [3] 0.001 | [5] -0.023 | [6] -0.017 | IRAK-1-4 Inhibitor I 0.054 | [9] -0.017 | ralimetinib -0.066 | [10] -0.061 | [11] -0.02 | [12] -0.136 | [14] 0.025 | [15] 0.044 | [16] 0.069

SLC12A6 isoform 2 (UniProt Q9UHW9)
inactive: erlotinib 0.013 | [2] 0 | [5] -0.019 | [7] -0.139 | [8] -0.049 | IRAK-1-4 Inhibitor I 0.089 | [9] 0.016 | ralimetinib -0.01 | [10] 0.017 | [11] -0.018 | [13] 0.027 | [14] 0.063 | [15] -0.006 | [16] 0.122

SGSM3 isoform 2 (UniProt Q96HU1)
inactive: erlotinib 0.001 | [2] 0.007 | [5] 0.037 | IRAK-1-4 Inhibitor I 0.002 | [9] -0.089 | ralimetinib -0.046 | [10] -0.031 | [11] 0.05 | [12] 0.092 | [14] -0.009 | [15] 0.025 | [16] 0

SIK3 (UniProt Q9Y2K2)
inactive: erlotinib -0.089 | [2] 0.094 | [5] 0.073 | [7] 0.503 | [8] 0.094 | IRAK-1-4 Inhibitor I -0.032 | ralimetinib -0.1 | [10] 0.014 | [11] -0.053 | [12] -0.045 | [13] -0.07 | [14] -0.067 | [15] 0.087

SLC22A18 (UniProt Q96BI1)
inactive: erlotinib -0.008 | [1] 0.043 | [2] -0.018 | [3] 0.049 | [4] -0.147 | [6] -0.03 | [7] -0.062 | [8] 0.004 | ibrutinib 0.099 | [9] -0.047 | [11] 0.049 | [14] 0.02 | [16] 0.011

SH2B1 (UniProt Q9NRF2)
inactive: erlotinib 0.067 | [2] 0.041 | [4] 0.015 | [5] 0.062 | IRAK-1-4 Inhibitor I 0.05 | ibrutinib 0.035 | [9] -0.043 | ralimetinib -0.02 | [10] -0.103 | [11] -0.099 | [12] -0.046 | [13] -0.048 | [14] -0.051 | [15] 0.127 | [16] -0.04

Copied from the listing (two entries):
SLC22A18 (UniProt Q96BI1)
inactive: erlotinib -0.008 | [1] 0.043 | [2] -0.018 | [3] 0.049 | [4] -0.147 | [6] -0.03 | [7] -0.062 | [8] 0.004 | ibrutinib 0.099 | [9] -0.047 | [11] 0.049 | [14] 0.02 | [16] 0.011

SH2B1 (UniProt Q9NRF2)
inactive: erlotinib 0.067 | [2] 0.041 | [4] 0.015 | [5] 0.062 | IRAK-1-4 Inhibitor I 0.05 | ibrutinib 0.035 | [9] -0.043 | ralimetinib -0.02 | [10] -0.103 | [11] -0.099 | [12] -0.046 | [13] -0.048 | [14] -0.051 | [15] 0.127 | [16] -0.04

Next part

SERPINB5 (UniProt P36952)
inactive: erlotinib 0.395 | [2] -0.266 | [4] 0.263 | [5] 0.019 | IRAK-1-4 Inhibitor I -0.254 | ibrutinib -0.024 | [9] -0.251 | ralimetinib -0.354 | [10] 0.345 | [11] 0.107 | [12] 1 | [13] 0.147 | [14] -0.075 | [15] 0.026 | [16] -0.044

SH2B3 (UniProt Q9UQQ2)
inactive: erlotinib -0.009 | [1] -0.022 | [2] 0.012 | [3] 0.03 | [6] -0.224 | [7] 0.017 | [8] 0.125 | [11] 0.032 | [14] -0.11

SERPINA12 (UniProt Q8IW75)
inactive: erlotinib 0.218 | [2] -0.409 | [4] 0.416 | [5] 0.319 | IRAK-1-4 Inhibitor I -0.213 | ibrutinib -0.292 | [9] -0.032 | ralimetinib -0.296 | [10] 0.976 | [11] 0.061 | [12] 0.43 | [13] 0.067 | [14] 0.145 | [15] -0.11 | [16] 0.176
